Article doi:10.1101/2024.10.01.615909 (bioRxiv, 2024)
Results are given in words; binding and its absence hold for the method and conditions named. For some of these results: Binding can be weak; no strength is given. Where a sequence is shown, tags or fusion partners need not be part of it. For some of these results: Binding seen in cells or lysates may run through a third protein.

What was measured:
[1] = target: IQD2_(central) fused to the Gal4 DNA-binding domain (Arabidopsis thaliana); test: two-hybrid
[2] = target: IQD2_(Nterm) fused to the Gal4 DNA-binding domain (Arabidopsis thaliana); test: two-hybrid
[3] = target: IQD2_(Cterm) fused to the Gal4 DNA-binding domain (Arabidopsis thaliana); test: two-hybrid
[4] = target: HS-IQD2_(ΔNterm) (Arabidopsis thaliana); test: pull-down

B1: KLCR1 fused to the Gal4 activation domain (protein, UniProt O81629 1-609)
chain: MPAMPGLVSVKTPSDTPPLRVAVPDTQPLSNPPRTPMKKTPSSTPSRSKPSPNRSTGKKDSPTVSSSTAAVIDVDDPSLDNPDLGPFLLKLARDAIASGEGPNKALDYAIRATKSFERCCAAVAPPIPGGSDGGPVLDLAMSLHVLAAIYCSLGRFDEAVPPLERAIQVPDPTRGPDHSLAAFSGHMQLGDTLSMLGQIDRSIACYEEGLKIQIQTLGDTDPRVGETCRYLAEAYVQAMQFNKAEELCKKTLEIHRAHSEPASLEEAADRRLMAIICEAKGDYENALEHLVLASMAMIASGQESEVASIDVSIGNIYMSLCRFDEAVFSYQKALTVFKASKGETHPTVASVFVRLAELYHRTGKLRESKSYCENALRIYNKPVPGTTVEEIAGGLTEISAIYESVDEPEEALKLLQKSMKLLEDKPGQQSAIAGLEARMGVMYYTVGRYEDARNAFESAVTKLRAAGEKSAFFGVVLNQMGLACVQLFKIDEAGELFEEARGILEQERGPCDQDTLGVYSNLAATYDAMGRIEDAIEILEQVLKLREEKLGTANPDFEDEKKRLAELLKEAGRSRNYKAKSLQNLIDPNARPPKKESSAKKWPSLGFKF
B1 was tested, and the binding [1] was “binds”, the binding [2] was “no binding” and the binding [3] was “no binding”.

B2: GST-KLCR1 (protein, UniProt O81629 1-609)
chain: MPAMPGLVSVKTPSDTPPLRVAVPDTQPLSNPPRTPMKKTPSSTPSRSKPSPNRSTGKKDSPTVSSSTAAVIDVDDPSLDNPDLGPFLLKLARDAIASGEGPNKALDYAIRATKSFERCCAAVAPPIPGGSDGGPVLDLAMSLHVLAAIYCSLGRFDEAVPPLERAIQVPDPTRGPDHSLAAFSGHMQLGDTLSMLGQIDRSIACYEEGLKIQIQTLGDTDPRVGETCRYLAEAYVQAMQFNKAEELCKKTLEIHRAHSEPASLEEAADRRLMAIICEAKGDYENALEHLVLASMAMIASGQESEVASIDVSIGNIYMSLCRFDEAVFSYQKALTVFKASKGETHPTVASVFVRLAELYHRTGKLRESKSYCENALRIYNKPVPGTTVEEIAGGLTEISAIYESVDEPEEALKLLQKSMKLLEDKPGQQSAIAGLEARMGVMYYTVGRYEDARNAFESAVTKLRAAGEKSAFFGVVLNQMGLACVQLFKIDEAGELFEEARGILEQERGPCDQDTLGVYSNLAATYDAMGRIEDAIEILEQVLKLREEKLGTANPDFEDEKKRLAELLKEAGRSRNYKAKSLQNLIDPNARPPKKESSAKKWPSLGFKF
With B2 the binding [4] was “binds”.
